No end group written: not given here.
Assay: general procedure: Fmoc solid-phase peptide synthesis
Conditions: whole synthesis, analytical HPLC and mass spectrometry

RRLSYSRRRF
final HPLC purity: >95%
